Laboratory results from PubChem BioAssay AID1671190 (National Center for Advancing Translational Sciences (NCATS), 2021).
Where “and” joins values, the source holds several entries; their conditions need not be identical. Identical values can stand only once. Among all 580,000 compounds or so, about 6,100 (1.1%) were called active. The inconclusive results got no clear call from the source; some entries with a clear call stand among them for comparison. The call rests on the fitted dose curve; in most records, active means well fitted inhibition curve with a large enough effect; inconclusive means small, poorly fitted or top-dose-only effect, or another doubt; inactive means no such curve, though single readings can be large or run the other way. Potencies of inconclusive entries are doubtful fits and often do not repeat.

By UniProt entry, the sequences of proteins in these tests, tags left out.
UniProt P18054, whole entry, looked up: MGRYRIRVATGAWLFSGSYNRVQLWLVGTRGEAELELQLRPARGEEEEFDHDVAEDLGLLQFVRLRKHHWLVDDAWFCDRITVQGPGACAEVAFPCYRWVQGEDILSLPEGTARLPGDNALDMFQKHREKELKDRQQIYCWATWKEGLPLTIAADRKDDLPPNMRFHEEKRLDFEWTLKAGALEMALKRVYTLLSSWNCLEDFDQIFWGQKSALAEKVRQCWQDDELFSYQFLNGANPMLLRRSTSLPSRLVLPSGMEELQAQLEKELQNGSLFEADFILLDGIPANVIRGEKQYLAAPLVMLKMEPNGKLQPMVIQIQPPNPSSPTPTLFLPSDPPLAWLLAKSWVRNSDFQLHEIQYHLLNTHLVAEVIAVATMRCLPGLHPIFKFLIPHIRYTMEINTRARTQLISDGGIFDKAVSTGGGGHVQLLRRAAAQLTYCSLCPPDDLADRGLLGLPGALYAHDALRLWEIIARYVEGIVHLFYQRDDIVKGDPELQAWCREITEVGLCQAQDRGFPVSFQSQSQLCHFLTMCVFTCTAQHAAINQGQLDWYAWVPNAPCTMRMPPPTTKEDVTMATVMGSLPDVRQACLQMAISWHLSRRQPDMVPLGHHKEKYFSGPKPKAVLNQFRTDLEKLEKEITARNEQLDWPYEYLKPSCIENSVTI

target: Polyunsaturated fatty acid lipoxygenase ALOX12 (Homo sapiens) (UniProt P18054); test: Primary qHTS assay for inhibitors of human arachidonate 12S-lipoxygenase (ALOX12): Round 2; settings: purified 12hLO, xylenol orange hydroperoxide absorbance; series mostly up to 108 µM
Outline: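 Hydroperoxide product was detected by ferrous iron/xylenol orange as the 573 to 405 nm absorbance ratio. Arachidonic acid at 40 uM (final) was turned over for 30 min at room temperature by 150 nM human 12hLO, pH 7.0 Hepes buffer, after 15 min compound preincubation.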
Potency means the concentration at half of the fitted maximal effect.

| SMILES | Potency |
| --- | --- |
| CCCCC(=O)C1=C(N2CCCC2)CC(C)(C)CC1=O | inconclusive: 17.8 µM [inhibitor, partial curve, poor fit] |
| Cc1cccc(C(=O)OCC(=O)c2c(N)n(CC(C)C)c(=O)n(C)c2=O)c1[N+](=O)[O-] | inactive |
| O=C(NCc1ccco1)c1ccc2sc([C@@H]3O[C@H](CO)[C@H](O)[C@H](O)[C@H]3O)nc2c1 | inconclusive: 63.1 µM [inhibitor, partial curve, poor fit] |
| COC(=O)c1sccc1NC(=O)C1CC(C)=C(C)CC1C(=O)O (centres undefined) | inconclusive: 44.7 µM [inhibitor, single point] |
| CCOC(=O)COc1ccc(C)cc1C(=O)c1ccn2nc(-c3ccc(F)cc3)cc2n1 | inconclusive: 35.5 µM [inhibitor, partial curve, poor fit] |
| O=C(CCc1ccco1)CCc1ccco1 | inconclusive: 56.2 µM [inhibitor, partial curve, poor fit] |
| CC(C)C(Sc1nnc(-c2cccnc2)o1)C(=O)NCc1cccnc1 (centres undefined) | inactive |
| O=C(CSc1nc2ccccc2c2nc3ccccc3n12)NCc1ccco1 | inconclusive: 112 µM [inhibitor, partial curve, poor fit] |
| c1nc(NCc2ccc3c(c2)OCO3)c2cc(-c3ccc4c(c3)OCCO4)ccc2n1 | inconclusive: 39.8 µM [inhibitor, partial curve, poor fit] |
| CCCc1ccc(Oc2cn[nH]c2-c2ccc(O)cc2O)cc1 | inconclusive: 50.1 µM [inhibitor, partial curve, poor fit] |
| COc1cc(/C=N/N2CCCCC2)cc([N+](=O)[O-])c1O | inactive |
| CC(C)(C)c1ccc(S(=O)(=O)NC(=O)C2(C)CCN2C(=O)Cc2ccc(-c3ccccc3)cc2)cc1 (centres undefined) | inconclusive: 0.251 µM [inhibitor, single point] |
| O=C(Nc1ccccc1F)Nc1c(NC2CCCC2)c2ccccc2oc1=O | inconclusive: 79.4 µM [inhibitor, partial curve, poor fit] |
| CCc1c(O)nc(SC2CC(=O)N(c3ccc(F)c(Cl)c3)C2=O)[nH]c1=O (centres undefined) | inconclusive: 44.7 µM [inhibitor, partial curve, poor fit] |
| CCOC(=O)C1=C(COC(=O)/C=C/c2ccc(C)o2)NC(=O)NC1C (centres undefined) | inconclusive: 39.8 µM [inhibitor, partial curve] |
| CN(C)c1ccc(N2[C@@H](CC(=O)O)c3cc(C(F)(F)F)ccc3S2(=O)=O)cc1 | inconclusive: 44.7 µM [inhibitor, partial curve, poor fit] |
| CCOC(=O)COc1ccc2c(=O)c(Oc3ccccc3Br)c(C)oc2c1 | inconclusive: 79.4 µM [inhibitor, single point] |
| C=CCN(CC=C)CCCOc1ccc(C)cc1OC | inconclusive: 0.631 µM [inhibitor, full curve, poor fit] |
| O=C(NC(=S)Nc1ccccc1N1CCN(C(=O)c2ccccc2)CC1)c1cccs1 | active: 15.8 µM |
| CNC(=O)NC(=O)C(C)Sc1cccc2cccnc12 (centres undefined) | inconclusive: 50.1 µM [inhibitor, single point] |
| C#CCOCCOCCOCCNc1nc(N2CCN(C(=O)[C@H]([C@@H](C)CC)n3cc(CCC(=O)O)nn3)CC2)nc(N2CCN(C(=O)[C@H](C)n3cc(CCCN=C(N)N)nn3)CC2)n1 | inactive |
| CCCN(CCC)C(=O)c1cc2cc(Br)ccc2oc1=O | inconclusive: 89.1 µM [inhibitor, single point] |

| SMILES | Potency |
| --- | --- |
| COc1ccccc1NC(=O)C(C)OC(=O)CCC1CCCCC1 (centres undefined) | inconclusive: 126 µM [inhibitor, partial curve, poor fit] |
| COCCOC1CCOC2(CCN(C(=O)c3ccco3)CC2)C1 (centres undefined) | inactive |
| O=C(O)CSCCOc1ccc(OCCSCC(=O)O)cc1 | inconclusive: 3.55 µM [inhibitor, full curve, poor fit] |
| NC(=O)Nc1cc(Cl)ccc1Cl | inconclusive: 112 µM [inhibitor, single point] |
| C=CCn1c(SCc2c(F)c(F)c(F)c(F)c2F)nc(O)cc1=O | inconclusive: 0.501 µM [inhibitor, full curve, poor fit] |
| O=C(CC1N=C2c3ccccc3N=C(SCC(=O)Nc3ccc(F)cc3)N2C1=O)NCc1cccs1 (centres undefined) | inconclusive: 112 µM [inhibitor, partial curve, poor fit] |
| O=S(=O)(Nc1ccc(S(=O)(=O)Nc2cccc3ccccc23)cc1)c1ccccc1 | inconclusive: 63.1 µM [inhibitor, partial curve, poor fit] |
| CNCC[C@@H](Oc1ccccc1C)c1ccccc1 | inactive and inconclusive: 35.5 µM [inhibitor, single point] |
| Cc1ccc(C(NC(=O)c2cccc(S(=O)(=O)N3CCN(C)CC3)c2)c2ccccc2)cc1 (centres undefined) | inconclusive: 100 µM [inhibitor, single point] |
| COc1ccc(-c2c(C)nn3c2NC(=O)CCC3=O)cc1S(=O)(=O)Nc1ccccc1F | inconclusive: 50.1 µM [inhibitor, partial curve, poor fit] |
| O=C(COC(=O)CCC(=O)c1ccc(F)cc1)Nc1cccc(S(=O)(=O)N2CCOCC2)c1 | inactive |
| COCCNc1ncnc2c1CN(C1CCNCC1)C(=O)CN2C | inconclusive: 14.1 µM [inhibitor, full curve] |
| C[C@@H]1CN([C@H](C)CO)C(=O)CCCn2nncc2CO[C@H]1CN(C)C(=O)Nc1ccc(N2CCCCC2)cc1 | inconclusive: 35.5 µM [inhibitor, partial curve, poor fit] |
| COc1cc(C2CC(=O)N3CN(c4ccc(C)cc4)CSC3=C2C#N)cc(Br)c1O (centres undefined) | active: 1.26 µM |
| Cn1nc(-c2nncn2CC2CC2)c2c1CCN(C(=O)c1cn[nH]c1-c1ccccc1)C2 | inactive |
| O=C(NC(=S)NC1CCCCCC1)c1cncc(Br)c1 | active: 31.6 µM |
| CCOC(=O)C(=NCC1CCCO1)NNc1ccccc1Cl (centres undefined) | inconclusive: 2.51 µM [inhibitor, full curve, poor fit] |
| O=C(CN1CCC(Cc2ccccc2)CC1)N1CCc2ccccc2C1 | active: 1 µM |
| O=c1[nH]c(=O)n(C2CCCCC2)c(O)c1C1=Nc2ccccc2SC(c2ccc(Cl)cc2)C1 (centres undefined) | inconclusive: 56.2 µM [inhibitor, partial curve, poor fit] |
| COc1cccc(C2C(C#N)=C(N)OC(C(C)(C)C)=C2C#N)c1 (centres undefined) | inconclusive: 112 µM [inhibitor, single point] |
| CN(c1ccccc1)c1ccc(/C=C(/CCC(=O)O)c2nc3ccccc3s2)cc1[N+](=O)[O-] | inconclusive: 89.1 µM [inhibitor, partial curve, poor fit] |
| O=C(CCc1ccccc1)NCc1ccc2c(c1)OCO2 | inconclusive: 112 µM [inhibitor, single point] |

| SMILES | Potency |
| --- | --- |
| C=CCNC(=O)O[C@@H]1CC[C@]2(C)C(CC[C@@H](O)[C@H]2CC(=O)NCc2ccc3c(c2)OCO3)[C@]1(C)CO (some centres undefined) | inactive |
| O=C(c1cc2ccccc2o1)N1CC=C(c2ccccc2)CC1 | inconclusive: 28.2 µM [inhibitor, full curve, poor fit] |
| CCC(C)n1c(NC(=O)c2ccccc2)c(C#N)c2nc3ccccc3nc21 (centres undefined) | inactive |
| COc1cccc(OC)c1C(=O)Nc1nc2c(s1)CCc1ccccc1-2 | inactive |
| Cn1cc(C2=C(c3cn(CCCSC(=N)N)c4ccccc34)C(=O)NC2=O)c2ccccc21 | inconclusive: 44.7 µM [inhibitor, partial curve, poor fit] |
| Cc1cccc(NC(=O)c2ccc3c(c2)CCN3S(=O)(=O)c2ccccc2)c1C | inactive |
| Cc1ccc(NC(=O)Nc2sc3nc4n(c(=O)c3c2C)CCC(C)CC4)c(Cl)c1 (centres undefined) | inconclusive: 3.98 µM [inhibitor, full curve, poor fit] |
| CCCCNC(=O)C[C@@H]1C[C@@]2(C(=O)OC)CCCCC=C2N(Cc2cccc3ccccc23)C1=O | inactive |
| C=CCc1cccc(CNc2cnc3ccccc3c2)c1O | active: 7.94 µM |
| CO[C@H]1[C@@H](O)[C@H](N)[C@@H](O[C@H]2O[C@H]([C@H](C)N)CC[C@H]2N)[C@H](O)[C@@H]1N(C)C(=O)CN | inconclusive: 31.6 µM [inhibitor, partial curve, poor fit] |
| Fc1ccccc1CNCCN1CCCC1 | inconclusive: 25.1 µM [inhibitor, partial curve] |
| COc1cc(C2CC(c3cccnc3)=NN2c2ccc(F)cc2)cc(OC)c1OC (centres undefined) | inconclusive: 56.2 µM [inhibitor, partial curve, poor fit] |
| CNC(=O)N1CCC(C2CCN(C(=O)c3ccco3)C2)CC1 (centres undefined) | inactive |
| COCCOC1CCOC2(CCN(C(=O)Nc3cccc(F)c3)CC2)C1 (centres undefined) | inactive |
| CC1CC(C)CN(CCOc2ccc(Br)cc2)C1 (centres undefined) | inconclusive: 39.8 µM [inhibitor, partial curve, poor fit] |
| CCOc1ccc(CCNC(=O)C2CCCN(S(=O)(=O)N3CC(C)CC(C)C3)C2)cc1OCC (centres undefined) | inactive |
| CCN(CC)C(=O)c1ccc2oc(CN3CCN(C(=O)Nc4cccc(F)c4)CC3)nc2c1 | inactive |
| CC1CCN(C(=O)CCCC(=O)N2CCC(C)CC2)CC1 | inactive |
| O=c1[nH]nc(SCc2nc(-c3cccc(C(F)(F)F)c3)no2)n2nc(-c3ccco3)cc12 | inconclusive: 28.2 µM [inhibitor, partial curve] |
| O=C(Cn1c(=O)oc2cc(S(=O)(=O)N3CCCCCC3)ccc21)c1ccc(Cl)cc1 | inconclusive: 79.4 µM [inhibitor, single point] |
